Here are results for 33 compounds from the supplement of paper PMC7024190.

Where a name gives a salt, the structure may show the parent alone. The list shows a part of the results. Single values are uncertain here, since repeats match poorly.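 A first-round screen of about ten thousand compounds sought those raising reporter output, using human embryonic kidney cells briefly transfected with a plasmid carrying a Renilla luciferase gene driven by the HSV-TK promoter.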

The first test relates to HEK 293FT. Nature of the test: log relative Renilla luciferase luminescence (reporter expression vs reference, reference not stated) (log (base not stated)); higher = higher recombinant reporter expression. The following applies: 10 µM; time after transfection 48 h.
Regarding `NC(=O)OCC(COC(N)=O)c1ccccc1` [Felbamate], the log was -0.209.
On the same count and under the same terms, to `Cc1c(C(=O)NN2CCCCC2)nn(-c2ccc(Cl)cc2Cl)c1-c1ccc(I)cc1` belongs -0.115.
In the case of `CCN1CCC[C@H]1CNC(=O)c1c(O)c(Cl)cc(Cl)c1OC` [Raclopride], the log came to 0.114.
As for `COc1ccccc1OCCNCC(O)COc1cccc2[nH]c3ccccc3c12` (stereo not given) [Carvedilol], the log came to 0.0247.
On the same count and under the same terms, to `O=C1CC2(CCCC2)CC(=O)N1CCNCC1COc2ccccc2O1` (stereo not given) belongs -0.0178; to `COc1cc(N)c(Cl)cc1C(=O)NC1CCN(CCCOc2ccc(F)cc2)CC1OC` (stereo not given) [Cisapride], 0.0917.
On to `c1cnc(N2CCN(Cc3ccc4c(c3)OCO4)CC2)nc1` [Piribedil], for which the log is 0.111.
Same read-out and setting: the result for `CCCCN1CCCC1CNC(=O)c1cc(C#N)c2ccccc2c1OC` (stereo not given) [Nafadotride] reads 0.134.

A further test concerns HEK 293FT. Described as above. Conditions: 10 µM; time after transfection 48 h. The source holds these as a separate data set.
Turning to `CCN(CC)CCCCC1CCN(CC(=O)N2c3ccccc3C(=O)Nc3cccnc32)CC1`, the log was -0.203.
Still for that read-out and setting: to `COc1ccccc1N1CCN(CC(O)COc2cccc3ccccc23)CC1` (stereo not given) [Naftopidil hydrochloride] belongs -0.00977; to `Cc1cccc(Nc2cc(Cl)nc(SCC(=O)O)n2)c1C`, -0.0109; to `CCC(NC(C)C)C(O)c1ccc(O)c2[nH]c(=O)ccc12` (stereo not given) [Procaterol hydrochloride], -0.0346.
Same read-out and setting: to `N[C@@H]1CCN(O)C1=O` belongs -0.203; to `NC(=O)OCC(COC(N)=O)c1ccccc1` [Felbamate], 0.553; to `N[C@H]1CCN(O)C1=O`, -0.178.
On the same count and under the same terms, the result for `Cc1c(C(=O)NN2CCCCC2)nn(-c2ccc(Cl)cc2Cl)c1-c1ccc(I)cc1` reads 0.0209; that for `CCN1CCC[C@H]1CNC(=O)c1c(O)c(Cl)cc(Cl)c1OC` [Raclopride], 0.116.
Take `c1ccc(C(NCCNC(c2ccccc2)c2ccccc2)c2ccccc2)cc1` [AMN 082 dihydrochloride]: the log was -0.177.
Regarding `O=C(O)CCC/C=C\CC1C(O)CC(O)C1/C=C/C(O)COc1cccc(Cl)c1` (racemic) [(±)-Cloprostenol sodium salt], the log is -0.121.
Still for that read-out and setting: the result for `CCc1cc(Cl)c(OC)c(C(=O)NC[C@@H]2CCCN2CC)c1O` [Eticlopride hydrochloride] reads 0.148; that for `COc1ccccc1OCCNCC(O)COc1cccc2[nH]c3ccccc3c12` (stereo not given) [Carvedilol], 0.00231; that for `C=CC(=O)c1ccc2ccccc2c1`, -0.0131.
Same read-out and setting: to `Nc1c(Br)cc(Br)cc1CN[C@H]1CC[C@H](O)CC1` [Ambroxol hydrochloride] belongs -0.0661.
For the compound `N[C@@H](CC(=O)Nc1ccc(Oc2cc(F)c(F)cc2Br)cc1)C(=O)O`, the log was -0.0566.
On the same count and under the same terms, to `CN(CCOc1ccc(-c2ccc3c(c2)OCO3)cc1C(C)(C)C)CC(=O)O` belongs 0.0162; to `O=C1N(c2ccccc2)c2ccccc2C1(Cc1ccncc1)Cc1ccncc1` [Linopirdine dihydrochloride], -0.0416; to `CC1(C(=O)O)NCCc2cc(O)c(O)cc21` (stereo not given) [Salsolinol-1-carboxylic acid], -0.464.
Still for that read-out and setting: to `O=C1CC2(CCCC2)CC(=O)N1CCNCC1COc2ccccc2O1` (stereo not given) belongs 0.0692; to `CC(=O)N[C@@H](Cc1c[nH]c2ccccc12)C(=O)OCc1cc(C(F)(F)F)cc(C(F)(F)F)c1`, 0.0932.
Take `CCOc1cc(CC(=O)N[C@@H](CC(C)C)c2ccccc2N2CCCCC2)ccc1C(=O)O` [Repaglinide]: the log is -0.194.
On to `CC(C)C[C@H](NC(=O)[C@@H](O)[C@H](N)Cc1ccccc1)C(=O)O` [Bestatin], for which the log was determined as 0.117.
The same measure, in the same setting: to `COc1cc(N)c(Cl)cc1C(=O)NC1CCN(CCCOc2ccc(F)cc2)CC1OC` (stereo not given) [Cisapride] belongs 0.102.
Same read-out and setting: the result for `C[C@@H]1CN(CCCn2c3ccccc3c3ccccc32)C[C@H](C)N1` [Rimcazole dihydrochloride] reads 0.0496.
On the same count and under the same terms, to `c1cnc(N2CCN(Cc3ccc4c(c3)OCO4)CC2)nc1` [Piribedil] belongs -0.0311; to `COCCNC(=O)COc1ccc(OCCNC[C@H](O)COc2ccccc2)cc1` [ZD 7114 hydrochloride], -0.0243.
`COc1ccc(Nc2ncnc3ccc(OC)cc23)cc1` [MPMQ hydrochloride]: the log was -0.146.
Consider `COC(=O)C1=C(C)NC(C)=C(C(=O)OC)C1c1ccccc1[N+](=O)[O-]` [Nifedipine], for which the log is -0.0863.
Same read-out and setting: the result for `C1CCC2(CC1)CCNCC2` [4,4-Pentamethylenepiperidine hydrochloride] reads -0.0696.
On the same count and under the same terms, the result for `CC(C)[C@H](NS(=O)(=O)c1ccc(-c2ccc(Br)cc2)cc1)C(=O)O` reads -0.222; that for `COc1cc2c(cc1O)CC[C@@H]1[C@@H]2CC[C@]2(C)[C@@H](O)CC[C@@H]12` [2-Methoxyestradiol], 0.0923.
